# Data published in publication PMC5663478.
# Sequences of proteins named here, by UniProt entry; tags and fusion partners are left off. A change or cut given only in a name is not applied to a line headed by its entry. Residues count along the entry.
# UniProt Q02413: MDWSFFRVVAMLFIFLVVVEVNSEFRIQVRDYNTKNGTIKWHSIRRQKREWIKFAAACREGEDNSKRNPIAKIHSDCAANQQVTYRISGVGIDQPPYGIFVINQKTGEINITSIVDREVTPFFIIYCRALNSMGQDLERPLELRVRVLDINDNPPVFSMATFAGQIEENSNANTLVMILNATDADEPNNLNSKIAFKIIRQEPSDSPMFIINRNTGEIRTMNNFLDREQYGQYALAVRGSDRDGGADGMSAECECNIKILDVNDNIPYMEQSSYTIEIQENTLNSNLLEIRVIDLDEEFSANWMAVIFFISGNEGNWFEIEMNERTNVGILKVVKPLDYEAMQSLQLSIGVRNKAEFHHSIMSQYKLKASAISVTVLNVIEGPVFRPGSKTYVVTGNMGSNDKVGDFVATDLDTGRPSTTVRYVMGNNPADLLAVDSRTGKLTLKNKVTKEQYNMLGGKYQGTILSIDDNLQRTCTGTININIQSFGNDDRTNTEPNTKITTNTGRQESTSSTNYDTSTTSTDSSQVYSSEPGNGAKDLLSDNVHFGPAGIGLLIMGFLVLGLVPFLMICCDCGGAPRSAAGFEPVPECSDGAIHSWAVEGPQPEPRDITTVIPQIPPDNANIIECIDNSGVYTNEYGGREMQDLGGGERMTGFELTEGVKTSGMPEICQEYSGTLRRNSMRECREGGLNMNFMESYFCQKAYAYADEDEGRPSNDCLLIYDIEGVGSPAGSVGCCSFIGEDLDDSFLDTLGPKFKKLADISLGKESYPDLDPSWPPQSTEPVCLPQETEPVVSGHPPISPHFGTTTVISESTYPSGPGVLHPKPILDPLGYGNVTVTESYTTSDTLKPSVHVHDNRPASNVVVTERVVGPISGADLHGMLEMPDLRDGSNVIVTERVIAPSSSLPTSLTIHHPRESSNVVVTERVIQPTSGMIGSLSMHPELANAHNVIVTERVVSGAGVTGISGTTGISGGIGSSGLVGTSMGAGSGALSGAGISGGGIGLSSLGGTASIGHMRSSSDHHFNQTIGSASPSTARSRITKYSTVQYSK
# Desmoglein 1 (Dsg1), endogenous (human (endogenous in NHEK)): residues 50-1049 of Q02413
# Desmoglein 1 (Dsg1) cytoplasmic tail, bait construct pSos-Dsg1: residues 570-1049 of Q02413
# UniProt P15924: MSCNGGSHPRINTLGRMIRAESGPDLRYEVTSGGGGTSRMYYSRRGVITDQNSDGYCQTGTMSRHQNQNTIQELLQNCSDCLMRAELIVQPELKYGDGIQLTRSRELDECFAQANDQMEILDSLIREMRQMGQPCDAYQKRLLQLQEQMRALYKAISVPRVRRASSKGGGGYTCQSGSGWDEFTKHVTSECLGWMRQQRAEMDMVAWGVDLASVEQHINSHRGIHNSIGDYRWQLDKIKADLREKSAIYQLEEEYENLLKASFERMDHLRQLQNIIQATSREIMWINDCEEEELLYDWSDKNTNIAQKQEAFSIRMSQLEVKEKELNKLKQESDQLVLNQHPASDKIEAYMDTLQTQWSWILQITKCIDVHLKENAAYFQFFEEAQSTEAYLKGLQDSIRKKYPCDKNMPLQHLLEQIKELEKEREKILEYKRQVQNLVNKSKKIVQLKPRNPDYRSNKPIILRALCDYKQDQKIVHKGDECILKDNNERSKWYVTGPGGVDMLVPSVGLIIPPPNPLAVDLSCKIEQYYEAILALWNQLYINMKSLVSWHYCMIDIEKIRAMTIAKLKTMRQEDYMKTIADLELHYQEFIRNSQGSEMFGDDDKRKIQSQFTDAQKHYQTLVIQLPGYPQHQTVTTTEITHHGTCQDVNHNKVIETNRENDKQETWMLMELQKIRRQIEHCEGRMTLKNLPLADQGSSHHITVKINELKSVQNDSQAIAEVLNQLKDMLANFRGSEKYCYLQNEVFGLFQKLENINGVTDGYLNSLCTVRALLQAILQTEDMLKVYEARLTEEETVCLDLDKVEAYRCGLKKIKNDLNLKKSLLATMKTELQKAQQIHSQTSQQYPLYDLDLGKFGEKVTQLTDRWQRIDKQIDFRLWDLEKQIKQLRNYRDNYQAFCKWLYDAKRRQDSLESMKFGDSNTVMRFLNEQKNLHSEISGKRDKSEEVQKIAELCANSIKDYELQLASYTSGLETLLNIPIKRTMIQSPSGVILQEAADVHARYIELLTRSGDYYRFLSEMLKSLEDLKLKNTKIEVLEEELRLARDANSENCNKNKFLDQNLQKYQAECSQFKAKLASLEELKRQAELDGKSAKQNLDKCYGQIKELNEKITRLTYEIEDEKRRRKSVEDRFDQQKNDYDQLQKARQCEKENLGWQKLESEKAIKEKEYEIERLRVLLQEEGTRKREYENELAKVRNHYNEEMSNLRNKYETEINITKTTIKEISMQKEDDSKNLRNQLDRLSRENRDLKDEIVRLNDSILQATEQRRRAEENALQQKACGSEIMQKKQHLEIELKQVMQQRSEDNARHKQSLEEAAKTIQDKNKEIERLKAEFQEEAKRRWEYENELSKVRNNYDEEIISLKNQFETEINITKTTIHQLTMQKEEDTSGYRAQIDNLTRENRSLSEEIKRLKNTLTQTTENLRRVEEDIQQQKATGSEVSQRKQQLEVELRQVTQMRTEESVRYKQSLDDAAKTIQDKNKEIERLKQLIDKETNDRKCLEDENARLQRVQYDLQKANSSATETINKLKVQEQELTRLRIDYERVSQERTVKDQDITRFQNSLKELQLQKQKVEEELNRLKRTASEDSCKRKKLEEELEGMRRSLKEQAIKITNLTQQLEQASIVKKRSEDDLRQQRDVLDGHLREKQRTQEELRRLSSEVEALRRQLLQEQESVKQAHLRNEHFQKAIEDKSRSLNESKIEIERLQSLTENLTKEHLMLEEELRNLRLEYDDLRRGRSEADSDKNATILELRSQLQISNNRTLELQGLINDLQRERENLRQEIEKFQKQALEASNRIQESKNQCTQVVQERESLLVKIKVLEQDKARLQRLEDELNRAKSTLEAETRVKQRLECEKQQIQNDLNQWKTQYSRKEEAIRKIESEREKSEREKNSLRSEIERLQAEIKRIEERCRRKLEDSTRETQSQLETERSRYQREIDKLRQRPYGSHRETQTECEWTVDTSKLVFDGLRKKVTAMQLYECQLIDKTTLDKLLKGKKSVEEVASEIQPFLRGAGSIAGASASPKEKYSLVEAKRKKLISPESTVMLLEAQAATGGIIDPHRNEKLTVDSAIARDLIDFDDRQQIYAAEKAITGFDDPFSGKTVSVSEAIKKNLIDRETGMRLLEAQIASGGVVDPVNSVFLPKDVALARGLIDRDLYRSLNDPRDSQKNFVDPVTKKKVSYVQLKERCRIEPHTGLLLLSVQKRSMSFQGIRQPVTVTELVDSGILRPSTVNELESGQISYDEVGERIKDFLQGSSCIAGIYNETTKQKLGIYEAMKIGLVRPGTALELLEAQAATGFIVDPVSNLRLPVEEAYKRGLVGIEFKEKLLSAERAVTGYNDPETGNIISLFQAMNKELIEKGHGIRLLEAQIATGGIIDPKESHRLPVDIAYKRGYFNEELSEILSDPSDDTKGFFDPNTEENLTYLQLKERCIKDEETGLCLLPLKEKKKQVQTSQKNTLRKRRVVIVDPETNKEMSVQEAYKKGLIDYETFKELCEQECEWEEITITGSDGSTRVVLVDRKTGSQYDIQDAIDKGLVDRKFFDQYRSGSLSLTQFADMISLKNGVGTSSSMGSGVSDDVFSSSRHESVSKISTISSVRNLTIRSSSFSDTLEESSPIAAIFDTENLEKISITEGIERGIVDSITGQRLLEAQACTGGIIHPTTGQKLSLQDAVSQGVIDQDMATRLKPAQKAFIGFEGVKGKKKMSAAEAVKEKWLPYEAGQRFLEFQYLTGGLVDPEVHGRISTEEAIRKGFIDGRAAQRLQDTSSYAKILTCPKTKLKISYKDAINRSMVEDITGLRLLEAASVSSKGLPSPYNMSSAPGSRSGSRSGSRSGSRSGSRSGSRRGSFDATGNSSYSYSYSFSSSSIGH
# UniProt Q9UNS2: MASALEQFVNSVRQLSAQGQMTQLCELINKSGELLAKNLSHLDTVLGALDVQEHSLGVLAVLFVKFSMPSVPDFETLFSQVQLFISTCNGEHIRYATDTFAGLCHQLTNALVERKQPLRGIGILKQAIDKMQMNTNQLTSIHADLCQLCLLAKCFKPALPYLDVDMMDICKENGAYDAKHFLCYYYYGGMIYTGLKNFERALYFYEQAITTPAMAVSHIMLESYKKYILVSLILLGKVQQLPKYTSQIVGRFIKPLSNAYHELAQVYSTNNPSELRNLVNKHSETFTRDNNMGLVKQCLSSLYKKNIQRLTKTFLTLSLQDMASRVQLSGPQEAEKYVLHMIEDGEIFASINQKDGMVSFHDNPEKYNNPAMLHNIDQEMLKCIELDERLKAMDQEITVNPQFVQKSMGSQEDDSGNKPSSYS
# Results are given in words; binding and its absence hold for the method and conditions named. For some of these results: Binding seen in cells or lysates may run through a third protein. Some binding calls cover weakened binding; strength is not graded here.
# Legend:
# [1] = molecular target: Desmoglein 1 (Dsg1), endogenous (human (endogenous in NHEK)) (UniProt Q02413); test: proximity ligation; DUOLink PLA with antibody pairs on fixed NHEKs after 1 day of differentiation in high calcium; proximity 40-100 nm; with siRNA against COPS3, DSG1, DP or scramble
# [2] = molecular target: Desmoplakin (Dp), endogenous (human (endogenous in NHEK)) (UniProt P15924); test: as above
# [3] = molecular target: Desmoplakin (Dp), endogenous (human (endogenous in NHEK)) (UniProt P15924); test: co-IP; immunoprecipitation of endogenous Dp from NHEKs after 1 day of differentiation; RIPA buffer (500 mM NaCl, 50 mM Tris pH 7.6, 10 mM MgCl2, 1% Tx-100, 0.1% SDS, 0.5% deoxycholate); Protein A/G beads
# [4] = molecular target: Desmoglein 1 (Dsg1) cytoplasmic tail, bait construct pSos-Dsg1 (UniProt Q02413); test: two-hybrid; CytoTrap (Stratagene) in temperature-sensitive cdc25H S. cerevisiae; pSos bait, myristoylated pMyr target; growth on galactose at 37°C confirms interaction, 25°C permissive
binding [1],binding [2],binding [3],binding [4],Substance
binds,binds,binds,,"Cops3, third subunit of the COP9 signalosome (CSN), endogenous (from UniProt Q9UNS2 1-423)"
,,,no binding,"Cops4, fourth subunit of the COP9 signalosome (CSN), two-hybrid construct (from UniProt Q9BT78 1-406)"
